In the supplement of paper PMC11732987, “Enantioselective OTUD7B fragment discovery through chemoproteomics screening and high-throughput optimisation” (Communications Chemistry, 2025):
Some of the results follow. The data scatter; read single values as rough.

The chains behind the UniProt entries cited, without tags or fusion partners. Where a name states a change or a piece, a line headed by the entry shows the natural chain unless it says otherwise.
UniProt Q8IVF2: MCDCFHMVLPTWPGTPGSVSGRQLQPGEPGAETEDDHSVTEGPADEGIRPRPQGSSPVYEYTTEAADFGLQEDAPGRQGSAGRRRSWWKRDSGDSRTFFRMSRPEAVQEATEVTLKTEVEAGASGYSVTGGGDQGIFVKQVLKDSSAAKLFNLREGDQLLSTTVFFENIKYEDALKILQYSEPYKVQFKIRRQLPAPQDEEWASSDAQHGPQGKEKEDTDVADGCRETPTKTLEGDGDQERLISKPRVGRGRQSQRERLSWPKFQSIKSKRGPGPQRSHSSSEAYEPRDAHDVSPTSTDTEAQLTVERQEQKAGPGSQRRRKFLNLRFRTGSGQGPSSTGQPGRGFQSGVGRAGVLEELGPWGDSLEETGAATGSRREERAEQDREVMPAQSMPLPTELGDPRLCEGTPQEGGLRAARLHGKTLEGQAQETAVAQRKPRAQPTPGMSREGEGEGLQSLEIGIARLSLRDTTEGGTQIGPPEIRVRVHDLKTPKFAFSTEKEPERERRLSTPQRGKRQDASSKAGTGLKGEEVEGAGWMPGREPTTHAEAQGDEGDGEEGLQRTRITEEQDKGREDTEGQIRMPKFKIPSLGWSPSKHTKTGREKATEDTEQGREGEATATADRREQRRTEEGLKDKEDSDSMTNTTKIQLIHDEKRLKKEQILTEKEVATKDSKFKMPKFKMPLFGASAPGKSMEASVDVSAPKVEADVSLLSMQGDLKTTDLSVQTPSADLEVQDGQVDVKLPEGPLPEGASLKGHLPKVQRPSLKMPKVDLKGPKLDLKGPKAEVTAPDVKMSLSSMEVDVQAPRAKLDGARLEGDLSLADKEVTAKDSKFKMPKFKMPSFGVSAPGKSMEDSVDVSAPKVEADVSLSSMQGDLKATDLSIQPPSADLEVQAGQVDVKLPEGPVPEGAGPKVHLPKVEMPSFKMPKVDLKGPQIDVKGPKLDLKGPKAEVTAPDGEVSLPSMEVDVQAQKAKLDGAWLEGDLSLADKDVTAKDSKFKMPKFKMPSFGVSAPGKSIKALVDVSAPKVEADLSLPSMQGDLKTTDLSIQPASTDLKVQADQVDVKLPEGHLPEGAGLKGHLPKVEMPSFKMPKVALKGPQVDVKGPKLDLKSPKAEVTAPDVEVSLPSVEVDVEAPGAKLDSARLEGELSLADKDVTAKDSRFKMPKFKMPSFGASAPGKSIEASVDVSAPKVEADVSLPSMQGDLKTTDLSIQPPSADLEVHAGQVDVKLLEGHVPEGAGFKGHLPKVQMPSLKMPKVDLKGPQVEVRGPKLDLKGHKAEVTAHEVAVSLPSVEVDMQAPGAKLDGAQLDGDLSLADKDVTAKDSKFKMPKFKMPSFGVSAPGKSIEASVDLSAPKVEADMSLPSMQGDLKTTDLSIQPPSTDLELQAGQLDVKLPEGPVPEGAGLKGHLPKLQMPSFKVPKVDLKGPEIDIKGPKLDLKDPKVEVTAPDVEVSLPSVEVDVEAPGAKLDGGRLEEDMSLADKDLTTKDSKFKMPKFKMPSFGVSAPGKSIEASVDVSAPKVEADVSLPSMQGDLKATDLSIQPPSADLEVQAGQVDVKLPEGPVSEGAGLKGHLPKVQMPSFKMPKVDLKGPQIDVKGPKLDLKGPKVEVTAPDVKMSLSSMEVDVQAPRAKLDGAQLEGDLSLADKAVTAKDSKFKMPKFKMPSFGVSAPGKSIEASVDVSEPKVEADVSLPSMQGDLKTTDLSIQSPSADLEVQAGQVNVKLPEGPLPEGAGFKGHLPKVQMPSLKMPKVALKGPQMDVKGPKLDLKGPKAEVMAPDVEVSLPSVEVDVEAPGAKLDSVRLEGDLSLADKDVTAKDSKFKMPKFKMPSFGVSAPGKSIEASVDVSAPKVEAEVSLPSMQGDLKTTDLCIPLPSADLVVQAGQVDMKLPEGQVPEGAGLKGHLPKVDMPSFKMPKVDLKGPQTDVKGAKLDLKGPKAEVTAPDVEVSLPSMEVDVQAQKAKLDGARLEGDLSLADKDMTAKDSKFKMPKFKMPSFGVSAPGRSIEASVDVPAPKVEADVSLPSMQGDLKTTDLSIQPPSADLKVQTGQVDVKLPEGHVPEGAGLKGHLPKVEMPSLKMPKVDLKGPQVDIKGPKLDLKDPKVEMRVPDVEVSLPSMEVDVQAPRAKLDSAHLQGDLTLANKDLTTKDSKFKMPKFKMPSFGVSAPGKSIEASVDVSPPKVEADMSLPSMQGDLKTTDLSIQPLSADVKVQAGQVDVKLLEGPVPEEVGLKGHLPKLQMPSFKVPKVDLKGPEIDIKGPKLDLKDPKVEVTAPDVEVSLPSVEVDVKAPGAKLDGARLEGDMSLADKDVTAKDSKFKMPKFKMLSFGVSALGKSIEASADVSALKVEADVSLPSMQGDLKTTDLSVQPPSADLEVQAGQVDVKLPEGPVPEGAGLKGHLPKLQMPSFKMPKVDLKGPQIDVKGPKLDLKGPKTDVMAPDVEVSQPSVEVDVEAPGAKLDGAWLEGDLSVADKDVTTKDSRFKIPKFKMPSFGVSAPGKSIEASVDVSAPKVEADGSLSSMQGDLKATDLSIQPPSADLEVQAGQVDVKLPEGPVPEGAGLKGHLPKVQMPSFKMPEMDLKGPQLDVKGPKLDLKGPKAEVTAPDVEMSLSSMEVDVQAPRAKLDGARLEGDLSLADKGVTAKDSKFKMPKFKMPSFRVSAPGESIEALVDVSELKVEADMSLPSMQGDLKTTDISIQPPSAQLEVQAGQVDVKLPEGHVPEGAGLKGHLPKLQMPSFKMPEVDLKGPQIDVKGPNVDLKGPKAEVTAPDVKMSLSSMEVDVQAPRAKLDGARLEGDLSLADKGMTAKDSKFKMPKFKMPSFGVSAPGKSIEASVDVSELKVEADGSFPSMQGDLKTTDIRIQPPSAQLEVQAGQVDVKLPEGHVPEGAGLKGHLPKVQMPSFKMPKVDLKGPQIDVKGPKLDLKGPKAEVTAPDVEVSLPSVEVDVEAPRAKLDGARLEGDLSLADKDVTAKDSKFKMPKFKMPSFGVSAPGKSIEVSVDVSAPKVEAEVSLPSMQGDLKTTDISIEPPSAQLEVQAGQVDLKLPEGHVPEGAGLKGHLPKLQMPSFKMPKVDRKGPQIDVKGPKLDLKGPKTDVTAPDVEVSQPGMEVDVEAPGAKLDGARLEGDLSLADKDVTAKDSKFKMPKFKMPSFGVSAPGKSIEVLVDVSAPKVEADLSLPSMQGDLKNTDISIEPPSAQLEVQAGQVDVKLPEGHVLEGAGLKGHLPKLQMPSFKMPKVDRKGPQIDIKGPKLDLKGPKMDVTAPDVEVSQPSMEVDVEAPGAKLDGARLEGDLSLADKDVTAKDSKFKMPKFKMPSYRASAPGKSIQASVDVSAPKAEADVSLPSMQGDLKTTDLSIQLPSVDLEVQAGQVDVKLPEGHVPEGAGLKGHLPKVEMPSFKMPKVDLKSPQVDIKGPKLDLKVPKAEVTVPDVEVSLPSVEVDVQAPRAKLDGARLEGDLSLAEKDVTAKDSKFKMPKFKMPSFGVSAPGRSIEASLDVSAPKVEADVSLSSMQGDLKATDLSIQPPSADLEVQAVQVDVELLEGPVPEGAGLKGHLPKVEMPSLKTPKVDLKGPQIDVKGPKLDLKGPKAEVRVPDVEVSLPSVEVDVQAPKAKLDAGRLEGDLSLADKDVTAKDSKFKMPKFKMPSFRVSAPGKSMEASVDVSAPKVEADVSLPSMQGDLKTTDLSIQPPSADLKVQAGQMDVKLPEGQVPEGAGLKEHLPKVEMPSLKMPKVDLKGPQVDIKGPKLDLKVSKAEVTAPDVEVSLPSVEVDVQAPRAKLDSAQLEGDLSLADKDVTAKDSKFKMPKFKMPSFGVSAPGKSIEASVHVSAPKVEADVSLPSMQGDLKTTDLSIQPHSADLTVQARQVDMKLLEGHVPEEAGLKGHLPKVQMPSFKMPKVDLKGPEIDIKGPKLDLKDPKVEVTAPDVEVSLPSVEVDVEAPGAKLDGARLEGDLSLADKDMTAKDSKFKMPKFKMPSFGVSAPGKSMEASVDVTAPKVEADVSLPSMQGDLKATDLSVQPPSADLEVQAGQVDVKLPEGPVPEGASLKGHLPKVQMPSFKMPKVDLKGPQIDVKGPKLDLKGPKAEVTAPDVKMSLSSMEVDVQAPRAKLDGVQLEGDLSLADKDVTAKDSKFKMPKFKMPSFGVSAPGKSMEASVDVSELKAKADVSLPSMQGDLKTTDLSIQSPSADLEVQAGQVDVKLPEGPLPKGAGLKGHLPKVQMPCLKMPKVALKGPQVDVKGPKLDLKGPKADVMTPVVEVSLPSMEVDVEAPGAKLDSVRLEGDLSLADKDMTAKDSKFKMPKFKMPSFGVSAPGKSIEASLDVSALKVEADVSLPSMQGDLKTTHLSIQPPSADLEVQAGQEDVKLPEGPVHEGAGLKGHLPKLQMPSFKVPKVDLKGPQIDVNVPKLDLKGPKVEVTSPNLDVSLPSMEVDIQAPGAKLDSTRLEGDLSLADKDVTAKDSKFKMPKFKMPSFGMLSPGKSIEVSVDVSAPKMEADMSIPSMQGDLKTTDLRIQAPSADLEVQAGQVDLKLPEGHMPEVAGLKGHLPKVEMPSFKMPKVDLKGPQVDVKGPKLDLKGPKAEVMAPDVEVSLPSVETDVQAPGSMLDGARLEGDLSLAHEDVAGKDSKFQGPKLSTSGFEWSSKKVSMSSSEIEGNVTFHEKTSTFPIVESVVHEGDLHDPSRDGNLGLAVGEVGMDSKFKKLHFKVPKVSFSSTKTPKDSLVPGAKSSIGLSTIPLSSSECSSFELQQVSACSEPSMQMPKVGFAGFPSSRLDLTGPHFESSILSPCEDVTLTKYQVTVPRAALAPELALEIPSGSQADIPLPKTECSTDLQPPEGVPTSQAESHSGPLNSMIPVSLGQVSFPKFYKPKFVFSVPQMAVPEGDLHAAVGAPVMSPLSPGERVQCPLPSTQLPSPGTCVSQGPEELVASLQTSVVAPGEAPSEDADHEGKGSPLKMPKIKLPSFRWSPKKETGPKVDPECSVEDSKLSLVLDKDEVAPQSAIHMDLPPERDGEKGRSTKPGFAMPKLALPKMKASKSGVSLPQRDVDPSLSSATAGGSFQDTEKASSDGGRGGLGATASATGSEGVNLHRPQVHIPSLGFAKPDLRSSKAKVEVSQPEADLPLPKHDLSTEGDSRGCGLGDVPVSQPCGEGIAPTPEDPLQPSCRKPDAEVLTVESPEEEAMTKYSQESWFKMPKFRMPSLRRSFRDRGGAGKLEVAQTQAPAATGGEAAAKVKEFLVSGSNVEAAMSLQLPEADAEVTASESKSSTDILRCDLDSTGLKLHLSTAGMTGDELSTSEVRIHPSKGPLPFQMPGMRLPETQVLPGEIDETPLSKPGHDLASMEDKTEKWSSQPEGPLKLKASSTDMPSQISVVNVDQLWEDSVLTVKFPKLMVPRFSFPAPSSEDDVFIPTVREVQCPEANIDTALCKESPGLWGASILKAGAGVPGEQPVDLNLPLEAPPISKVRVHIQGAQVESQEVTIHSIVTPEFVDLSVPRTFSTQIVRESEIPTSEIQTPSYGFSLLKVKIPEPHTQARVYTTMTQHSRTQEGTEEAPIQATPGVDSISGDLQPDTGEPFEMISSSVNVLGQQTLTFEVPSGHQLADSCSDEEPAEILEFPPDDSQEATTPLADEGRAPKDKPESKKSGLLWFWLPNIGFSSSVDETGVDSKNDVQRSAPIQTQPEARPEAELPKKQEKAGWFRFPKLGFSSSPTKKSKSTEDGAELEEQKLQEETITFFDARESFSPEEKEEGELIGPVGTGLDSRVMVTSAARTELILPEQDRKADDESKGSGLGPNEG
UniProt Q86V24: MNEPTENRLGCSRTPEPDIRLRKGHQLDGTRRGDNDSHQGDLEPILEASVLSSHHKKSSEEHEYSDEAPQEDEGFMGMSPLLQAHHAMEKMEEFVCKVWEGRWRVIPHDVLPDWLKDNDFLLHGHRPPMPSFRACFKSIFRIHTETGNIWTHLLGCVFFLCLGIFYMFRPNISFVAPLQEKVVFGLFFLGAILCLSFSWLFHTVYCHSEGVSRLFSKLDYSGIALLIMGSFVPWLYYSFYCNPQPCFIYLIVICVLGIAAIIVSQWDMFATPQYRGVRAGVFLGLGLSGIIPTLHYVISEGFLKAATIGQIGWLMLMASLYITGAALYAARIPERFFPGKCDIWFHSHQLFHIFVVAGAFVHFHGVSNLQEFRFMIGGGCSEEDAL
UniProt P11766: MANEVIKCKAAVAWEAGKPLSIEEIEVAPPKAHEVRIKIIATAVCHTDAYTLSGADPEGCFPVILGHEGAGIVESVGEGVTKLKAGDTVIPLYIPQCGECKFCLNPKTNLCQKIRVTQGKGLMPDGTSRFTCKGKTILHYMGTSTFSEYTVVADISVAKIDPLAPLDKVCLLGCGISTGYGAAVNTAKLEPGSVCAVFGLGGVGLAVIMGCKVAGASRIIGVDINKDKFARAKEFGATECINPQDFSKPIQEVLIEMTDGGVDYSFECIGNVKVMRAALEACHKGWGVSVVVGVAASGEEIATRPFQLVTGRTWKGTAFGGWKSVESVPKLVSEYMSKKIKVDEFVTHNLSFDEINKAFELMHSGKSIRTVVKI

Tests used:
[1] = compound: ClCC(=O)N[C@@H]1CCCc2ccccc12; experiment: log2 mean competition ratio of IA-DTB cysteine labelling (DMSO/compound) (log2 ratio); higher = stronger cysteine engagement by compound; details: treatment time: 4 h, cell line lysate: HEK293T
Protocol: (§1)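 IA-DTB competitive cysteine chemoproteomics in HEK293T RIPA lysate. Lysates were treated with compound 29 or 30 at 50 or 200 µM for 4 h, then IA-DTB (500 µM, 1 h), trypsin-digested, NeutrAvidin-enriched and analysed by diaPASEF. Competition ratio = intensity DMSO / intensity compound (n=4 treated, n=64 DMSO); binding: mean log2 CR ≥ 1 and p ≤ 0.05 plus QC filters. Target is the cysteine site.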

[2] = compound: ClCC(=O)N[C@H]1CCCc2ccccc12; experiment: as above; details: treatment time: 4 h, cell line lysate: HEK293T
Protocol: as §1

Row | Target | log2 mean competition ratio ([1]; 50 µM) | log2 mean competition ratio ([1]; 200 µM) | log2 mean competition ratio ([2]; 50 µM) | log2 mean competition ratio ([2]; 200 µM)
1 | AKAP9 C1144 (UniProt Q99996) | -0.0975 | -0.158 | -0.0657 | -0.102
2 | AKAP17A C529 (UniProt Q02040) | -0.248 | 0.178 | 0.152 | 0.481
3 | AFF1 C151 (UniProt P51825) | -0.0617 | -0.0748 | 0.273 | -0.0307
4 | ACO2 C592 (UniProt Q99798) | 0.279 | -0.0165 | -0.279 | -0.161
5 | AHNAK2 C405 (UniProt Q8IVF2) | -0.072 | -0.105 | -0.266 | -0.217
6 | ADIPOR2 C96 (UniProt Q86V24) | -0.212 | -0.0615 | 0.193 | -0.00861
7 | AMOTL1 C748 (UniProt Q8IY63) | -0.0677 | 0.497 | -0.583 | 0.631
8 | ADH5 C282 (UniProt P11766) | -0.09 | -0.167 | -0.232 | -0.423
